The text below walks through data of PMC11466185, “Mechanisms and efficacy of small molecule latency-promoting agents to inhibit HIV reactivation ex vivo” (JCI Insight, 2024).

Each structure is given as a SMILES string. pIC50: −log10 of the molar value.

The test system of the assay is HIV transcripts (PolyA, TatRev). The assay can be described thus: Dose-response curves of LPAs: polyadenylated and multiply spliced HIV transcripts 24 hours after activation. Type of assay: cell-based. Conditions: Human immunodeficiency virus 1, PBMC, reduction in PolyA HIV transcripts relative to activated DMSO, PBMCs from 1 participant per drug, read-out: Completed (PolyA) IC50. On the procedure: The IC50 was determined based on the reduction in completed (PolyA) as well as multiply spliced (TatRev) HIV transcripts relative to activated DMSO (Table 1).
Figure 2 Dose-response curves of LPAs. Dose-response curves for each drug were generated in PBMCs from 1 ART-suppressed study participant per drug. PBMCs were aliquoted into wells at 6 × 10^6 cells/well, activated, and cultured with antiretrovirals in the presence of DMSO alone (no drug) or varying concentrations of individual drugs in DMSO. After 24 hours, the levels of polyadenylated and multiply spliced HIV transcripts were quantified by RT-ddPCR, normalized to 1 μg of total cellular RNA, and expressed as a percentage of the activated DMSO control (% of activated DMSO).

On to `CCc1cnn2c(NCc3ccc[n+]([O-])c3)cc(N3CCCC[C@H]3CCO)nc12` [dinaciclib], for which the pIC50 is 9.26.
